The subject of the experiment is HEK293A TEAD-LUC reporter. Put plainly: TEAD-luciferase reporter activity (YAP activation), robust Z score vs plate; higher = stronger YAP/TEAD activation. As to conditions: 24 h. A general note: Reporter assays use an easily measured gene product as a stand-in for the process of interest.

Structures are written as SMILES. The list shows a part of the results. Repeats in this data set agree poorly, so a single value says little.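 The human kidney-derived cells carry a stably integrated construct of eight TEAD-binding elements driving luciferase, read by luminescence in a drug-repurposing library screen. A compound counts as a hit when its signal is more than five robust Z scores above the plate mean.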

On to `COc1ccc2c3c1O[C@H]1[C@@H](O)CC[C@H]4[C@@H](C2)N(C)CC[C@@]341` [Dihydrocodeine Bitartrate], for which the TEAD-luciferase reporter activity was inactive: 1.42 (compound concentration: 200 nM) and active: 9.99 (compound concentration: 10 uM).
As to `CC(=O)NC1CCC(O[N+](=O)[O-])CC1` (centres undefined), the TEAD-luciferase reporter activity was inactive: 1.05 (compound concentration: 200 nM), inactive: 0.658 (compound concentration: 2 uM) and inactive: -0.844 (compound concentration: 10 uM).
The matching figures for `CC(C)CN1C(=O)C(NC(=O)Nc2cccc(-c3nnn[nH]3)c2)N=C(c2ccccc2)c2ccccc21` (centres undefined): inactive: -0.721, inactive: -1.57 and active: 8.17.
The matching figures for `CC(=O)O[C@H]1CC[C@@]2(C)C(=CC[C@H]3[C@@H]4CC[C@H](O)[C@@]4(C)CC[C@@H]32)C1`: inactive: -0.936, inactive: -1.43 and inactive: 2.81.
In the case of `O=C(C1CCCN1C(=O)c1ccc(C(F)(F)F)cc1)N1CCC(N2Cc3ccccc3C2=O)CC1` (centres undefined), the TEAD-luciferase reporter activity is, setting by setting: (compound concentration: 200 nM) inactive: -2.82; (compound concentration: 10 uM) inactive: -1.13.
The matching figures for `CC12C=CC(=O)C=C1CC[C@@H]1[C@@H]2CCC2(C)C(=O)CC[C@@H]12` (some centres undefined): inactive: -0.358 and inactive: -0.186.
Turning to `Cc1nnc2n1-c1sc(C#CCn3c(=O)c4ccccc4c4ccccc43)cc1C(c1ccccc1Cl)=NC2`, the TEAD-luciferase reporter activity is inactive: -0.219 (compound concentration: 200 nM), inactive: -0.211 (compound concentration: 2 uM) and inactive: -0.489 (compound concentration: 10 uM).
With `CNC(=O)Oc1ccccc1C(=O)Nc1ccccc1`, the TEAD-luciferase reporter activity was inactive: -0.663 (compound concentration: 200 nM), inactive: -1.57 (compound concentration: 2 uM) and inactive: -1.88 (compound concentration: 10 uM).
The matching figures for `c1cncc(C2=N[C@H](CN3CCCCC3)CON2)c1`: inactive: -1.48, inactive: -0.16 and inactive: -0.635.
On to `CC(=O)[C@H]1CC[C@H]2[C@@H]3CC[C@@H]4C[C@H](O)CC[C@]4(C)[C@H]3CC[C@]12C`, for which the TEAD-luciferase reporter activity was inactive: -0.264 (compound concentration: 200 nM), inactive: -1.07 (compound concentration: 2 uM) and inactive: 0.0688 (compound concentration: 10 uM).
With `CC1(C)COC(=O)C1O` (centres undefined), the TEAD-luciferase reporter activity (compound concentration: 200 nM) is inactive: 0.379, the TEAD-luciferase reporter activity (compound concentration: 2 uM) was inactive: 1.1 and the TEAD-luciferase reporter activity (compound concentration: 10 uM) was inactive: -1.03.
Take `CCCCCCC(C)(C)c1cc(O)c2c(c1)OC(C)(C)[C@@H]1CCC(=O)C[C@@H]21` [Nabilone]: the TEAD-luciferase reporter activity reads like this: (compound concentration: 200 nM) inactive: -0.254; (compound concentration: 10 uM) inactive: 2.66.
`CCCCCCC(=O)O[C@H]1CC[C@H]2[C@@H]3CC[C@H]4CC(=O)C=C(C)[C@]4(C)[C@H]3CC[C@]12C`: the TEAD-luciferase reporter activity runs as follows: (compound concentration: 200 nM) inactive: 0.0288; (compound concentration: 2 uM) inactive: -0.358; (compound concentration: 10 uM) inactive: 4.44.
In the same order, the values of `COc1ccccc1N1CCN(CCc2ccc3c(c2)sc(=O)n3C)CC1` are active: 5.48, inactive: 4.18 and inactive: 1.97.
In the same order, the values of `Nc1ncc([N+](=O)[O-])s1` are inactive: 0.704, inactive: -1.65 and inactive: 0.596.
Regarding `CN1CCC(O)(c2ccc(F)cc2)C(C(=O)c2ccc(F)cc2)C1` (centres undefined) [flazalone], the TEAD-luciferase reporter activity was inactive: -0.809 (compound concentration: 200 nM), inactive: -1.34 (compound concentration: 2 uM) and inactive: -1.84 (compound concentration: 10 uM).
